For four substances, binding results are on record in paper PMC10378570.

Chains of the proteins cited; added tags and fusions are not shown.
UniProt P10070: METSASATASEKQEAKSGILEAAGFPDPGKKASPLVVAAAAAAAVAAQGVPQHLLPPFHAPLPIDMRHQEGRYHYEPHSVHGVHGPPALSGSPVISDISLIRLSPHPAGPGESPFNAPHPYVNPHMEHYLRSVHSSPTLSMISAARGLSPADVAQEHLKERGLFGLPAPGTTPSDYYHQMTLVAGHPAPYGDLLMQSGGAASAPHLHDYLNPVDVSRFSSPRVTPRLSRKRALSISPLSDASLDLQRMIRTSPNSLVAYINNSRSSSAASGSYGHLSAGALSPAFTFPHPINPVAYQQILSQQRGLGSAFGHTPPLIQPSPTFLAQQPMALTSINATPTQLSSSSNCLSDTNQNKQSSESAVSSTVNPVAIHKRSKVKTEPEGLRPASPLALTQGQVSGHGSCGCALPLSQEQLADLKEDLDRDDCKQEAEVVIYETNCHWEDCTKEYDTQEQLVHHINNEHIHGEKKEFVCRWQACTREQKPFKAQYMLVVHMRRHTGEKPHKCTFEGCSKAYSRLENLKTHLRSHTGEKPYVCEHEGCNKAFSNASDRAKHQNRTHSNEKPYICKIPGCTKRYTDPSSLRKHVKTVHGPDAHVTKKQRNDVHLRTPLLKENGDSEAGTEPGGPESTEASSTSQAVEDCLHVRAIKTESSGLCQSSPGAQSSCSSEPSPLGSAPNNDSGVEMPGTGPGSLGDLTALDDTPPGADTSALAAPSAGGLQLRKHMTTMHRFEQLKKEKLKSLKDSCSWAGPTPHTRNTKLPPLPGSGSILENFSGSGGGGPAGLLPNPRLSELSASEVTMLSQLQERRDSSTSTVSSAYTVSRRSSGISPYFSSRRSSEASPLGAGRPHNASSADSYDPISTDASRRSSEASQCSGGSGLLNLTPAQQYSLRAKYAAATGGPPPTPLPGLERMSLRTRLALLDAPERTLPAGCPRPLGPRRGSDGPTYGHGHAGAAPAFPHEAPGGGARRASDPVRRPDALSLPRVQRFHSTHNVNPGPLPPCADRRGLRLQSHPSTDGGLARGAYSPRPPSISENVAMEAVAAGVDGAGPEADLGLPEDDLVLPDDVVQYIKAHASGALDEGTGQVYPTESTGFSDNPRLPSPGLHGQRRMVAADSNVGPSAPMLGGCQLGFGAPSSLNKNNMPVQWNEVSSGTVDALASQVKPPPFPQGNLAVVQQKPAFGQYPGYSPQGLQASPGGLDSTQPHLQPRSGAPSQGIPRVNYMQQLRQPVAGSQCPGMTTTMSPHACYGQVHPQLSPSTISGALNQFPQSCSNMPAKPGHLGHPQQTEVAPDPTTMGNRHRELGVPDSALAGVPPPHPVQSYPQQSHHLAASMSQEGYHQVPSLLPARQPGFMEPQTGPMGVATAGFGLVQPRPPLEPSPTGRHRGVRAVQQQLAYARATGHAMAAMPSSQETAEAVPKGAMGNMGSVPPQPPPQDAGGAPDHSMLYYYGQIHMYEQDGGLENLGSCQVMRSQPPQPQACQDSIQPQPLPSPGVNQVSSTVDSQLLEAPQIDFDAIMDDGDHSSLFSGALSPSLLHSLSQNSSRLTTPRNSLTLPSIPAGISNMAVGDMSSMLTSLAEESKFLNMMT
UniProt P08151: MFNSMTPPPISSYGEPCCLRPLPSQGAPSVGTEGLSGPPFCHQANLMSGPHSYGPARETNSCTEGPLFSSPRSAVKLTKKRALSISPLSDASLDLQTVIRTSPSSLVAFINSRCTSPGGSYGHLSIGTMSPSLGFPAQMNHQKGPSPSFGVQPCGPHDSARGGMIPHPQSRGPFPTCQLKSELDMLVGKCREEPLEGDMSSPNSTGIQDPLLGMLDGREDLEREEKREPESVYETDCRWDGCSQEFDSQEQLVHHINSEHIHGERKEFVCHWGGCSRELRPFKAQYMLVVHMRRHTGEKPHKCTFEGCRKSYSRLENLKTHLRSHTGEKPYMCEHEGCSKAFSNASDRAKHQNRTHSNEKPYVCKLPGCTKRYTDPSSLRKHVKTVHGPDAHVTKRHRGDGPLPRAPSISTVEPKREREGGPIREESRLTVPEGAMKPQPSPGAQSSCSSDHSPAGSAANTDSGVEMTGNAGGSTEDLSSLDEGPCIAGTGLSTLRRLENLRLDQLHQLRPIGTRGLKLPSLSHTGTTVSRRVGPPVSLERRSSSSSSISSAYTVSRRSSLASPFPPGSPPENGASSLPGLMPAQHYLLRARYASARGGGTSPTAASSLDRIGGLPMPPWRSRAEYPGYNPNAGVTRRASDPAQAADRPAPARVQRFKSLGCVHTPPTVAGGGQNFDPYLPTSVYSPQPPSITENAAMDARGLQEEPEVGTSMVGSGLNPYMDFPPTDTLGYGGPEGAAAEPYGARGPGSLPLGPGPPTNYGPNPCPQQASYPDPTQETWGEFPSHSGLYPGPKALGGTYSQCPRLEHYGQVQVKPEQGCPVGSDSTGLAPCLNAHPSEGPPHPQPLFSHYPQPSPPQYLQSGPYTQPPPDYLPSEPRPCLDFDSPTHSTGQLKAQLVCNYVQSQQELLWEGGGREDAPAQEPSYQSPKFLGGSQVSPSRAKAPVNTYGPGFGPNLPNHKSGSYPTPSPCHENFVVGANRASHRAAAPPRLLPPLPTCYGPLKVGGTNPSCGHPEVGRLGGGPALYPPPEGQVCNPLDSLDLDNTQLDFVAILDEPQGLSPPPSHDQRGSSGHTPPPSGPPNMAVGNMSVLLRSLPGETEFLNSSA

Assay [1] addresses T1, Flag-tagged DAX1 (dosage-sensitive sex reversal adrenal hypoplasia congenital critical region on X chromosome, gene 1) (UniProt P51843).
T1 sequence: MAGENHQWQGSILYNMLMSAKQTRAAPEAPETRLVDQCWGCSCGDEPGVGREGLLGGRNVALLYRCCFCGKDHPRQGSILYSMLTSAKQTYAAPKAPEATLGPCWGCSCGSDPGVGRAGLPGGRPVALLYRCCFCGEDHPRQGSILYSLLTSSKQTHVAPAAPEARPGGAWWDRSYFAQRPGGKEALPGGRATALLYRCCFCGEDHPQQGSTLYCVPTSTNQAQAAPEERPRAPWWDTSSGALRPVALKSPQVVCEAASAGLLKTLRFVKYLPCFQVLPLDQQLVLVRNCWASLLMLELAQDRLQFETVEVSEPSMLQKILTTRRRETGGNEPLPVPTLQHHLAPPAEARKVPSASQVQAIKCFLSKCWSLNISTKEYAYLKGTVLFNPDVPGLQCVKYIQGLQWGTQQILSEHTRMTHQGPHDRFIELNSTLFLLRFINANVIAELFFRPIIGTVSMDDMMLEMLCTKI
The assay can be described thus: co-IP; HEK293 cells co-transfected for 48 h; lysis in 50 mM Tris-HCl pH 7.4, 150 mM NaCl, 1 mM EDTA, 1% Triton X-100, 1 mM PMSF; M2 FLAG-agarose, 16 h at 4 °C, to precipitate Flag-DAX1; blots with anti-HA, anti-MYC or anti-FLAG.

Assay [2] deals with T2, endogenous DAX1 (human (endogenous in PC3 and DU145)) (UniProt P51843).
T2 sequence: T1 sequence
The assay is described as follows: co-IP; endogenous proteins; 2 mg of PC3 or DU145 cell lysate; immunoprecipitation with anti-DAX1 (normal rabbit IgG as negative control); Western blot for GLI1 or GLI2. Background: In western blotting, separated proteins are transferred to a membrane and probed.

Results are given in words; binding and its absence hold for the method and conditions named. Binding seen in cells or lysates may run through a third protein. Some results given as binding are weak or reduced against the parent protein; the word gives no strength. For some of these results: Where a sequence is shown, tags or fusion partners need not be part of it.

Regarding “MYC-tagged GLI2 (from UniProt P10070 1-1586)”, the binding entry in assay [1] was “binds”.
Regarding “endogenous GLI2 (from UniProt P10070 1-1586)”, the binding result in assay [2] was “binds”.
Take “HA-tagged GLI1 (from UniProt P08151 1-1106)”: in assay [1], the binding result is reported as “binds”.
Turning to “endogenous GLI1 (from UniProt P08151 1-1106)”, in assay [2], the binding result was “binds”.
